Results are given in words; binding and its absence hold for the method and conditions named. For some assays here: In cells and extracts the contact can be indirect. For some assays here: Binding can be weak; no strength is given. For some assays here: Where a sequence is shown, tags or fusion partners need not be part of it.
B1: CD99 (endogenous, wild-type mouse CD8 T cells) (receptor, UniProt Q8VCN6 29-175, looked up)
chain: DDFNLGDALEDPNMKPTPKAPTPKKPSGGFDLEDALPGGGGGGAGEKPGNRPQPDPKPPRPHGDSGGISDSDLADAAGQGGGGAGRRGSGDEGGHGGAGGAEPEGTPQGLVPGVVAAVVAAVAGAVSSFVAYQRRRLCFREGGSAPV
B2: CD99 TM mutant (mouse CD99 with transmembrane domain replaced by that of CD4), fluorescent protein fusion (receptor, not shown: large carriers)
chain: QKLISEEDLNSDDFNLGDALEDPNMKPTPKAPTPKKPSGGFDLEDALPGGGGGGAGEKPGNRPQPDPKPPRPHGDSGGISDSDLADAAGQGGGGAGRRGSGDEGGHGGAGGAEPEGTPQGALIVLGGVAGLLLFIGLGIFFCAYQRRRLCFREGGSAPV

Experiments:
tubulin (mouse) [1] = assay: co-immunoprecipitation with anti-CD99 antibody (EJ2), anti-alpha-tubulin blot; lysate of activated WT mouse T cells
tubulin (mouse) [2] = assay: confocal co-localization in CD99-KO T cells expressing the mutant, on anti-CD3-coated coverslips

Binder | binding (tubulin (mouse) [1]) | binding (tubulin (mouse) [2])
B1 | binds | 
B2 |  | no binding

From patent US20230118625A1
